Results on 22 targets are retold here after the supplement of paper PMC10849652.

By UniProt entry, the sequences of proteins in these tests, tags left out. Where a name states a change or a piece, a line headed by the entry shows the natural chain unless it says otherwise.
UniProt Q13351: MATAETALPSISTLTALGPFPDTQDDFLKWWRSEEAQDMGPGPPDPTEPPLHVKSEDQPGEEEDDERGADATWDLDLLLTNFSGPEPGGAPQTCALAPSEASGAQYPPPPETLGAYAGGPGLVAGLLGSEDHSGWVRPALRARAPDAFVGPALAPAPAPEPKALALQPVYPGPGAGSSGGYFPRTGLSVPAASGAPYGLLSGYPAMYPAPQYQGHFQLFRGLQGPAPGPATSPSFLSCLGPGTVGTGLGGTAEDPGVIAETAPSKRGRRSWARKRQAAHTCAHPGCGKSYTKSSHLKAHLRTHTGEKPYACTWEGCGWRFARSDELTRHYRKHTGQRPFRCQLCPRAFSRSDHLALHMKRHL
UniProt Q9BY66, whole entry, looked up: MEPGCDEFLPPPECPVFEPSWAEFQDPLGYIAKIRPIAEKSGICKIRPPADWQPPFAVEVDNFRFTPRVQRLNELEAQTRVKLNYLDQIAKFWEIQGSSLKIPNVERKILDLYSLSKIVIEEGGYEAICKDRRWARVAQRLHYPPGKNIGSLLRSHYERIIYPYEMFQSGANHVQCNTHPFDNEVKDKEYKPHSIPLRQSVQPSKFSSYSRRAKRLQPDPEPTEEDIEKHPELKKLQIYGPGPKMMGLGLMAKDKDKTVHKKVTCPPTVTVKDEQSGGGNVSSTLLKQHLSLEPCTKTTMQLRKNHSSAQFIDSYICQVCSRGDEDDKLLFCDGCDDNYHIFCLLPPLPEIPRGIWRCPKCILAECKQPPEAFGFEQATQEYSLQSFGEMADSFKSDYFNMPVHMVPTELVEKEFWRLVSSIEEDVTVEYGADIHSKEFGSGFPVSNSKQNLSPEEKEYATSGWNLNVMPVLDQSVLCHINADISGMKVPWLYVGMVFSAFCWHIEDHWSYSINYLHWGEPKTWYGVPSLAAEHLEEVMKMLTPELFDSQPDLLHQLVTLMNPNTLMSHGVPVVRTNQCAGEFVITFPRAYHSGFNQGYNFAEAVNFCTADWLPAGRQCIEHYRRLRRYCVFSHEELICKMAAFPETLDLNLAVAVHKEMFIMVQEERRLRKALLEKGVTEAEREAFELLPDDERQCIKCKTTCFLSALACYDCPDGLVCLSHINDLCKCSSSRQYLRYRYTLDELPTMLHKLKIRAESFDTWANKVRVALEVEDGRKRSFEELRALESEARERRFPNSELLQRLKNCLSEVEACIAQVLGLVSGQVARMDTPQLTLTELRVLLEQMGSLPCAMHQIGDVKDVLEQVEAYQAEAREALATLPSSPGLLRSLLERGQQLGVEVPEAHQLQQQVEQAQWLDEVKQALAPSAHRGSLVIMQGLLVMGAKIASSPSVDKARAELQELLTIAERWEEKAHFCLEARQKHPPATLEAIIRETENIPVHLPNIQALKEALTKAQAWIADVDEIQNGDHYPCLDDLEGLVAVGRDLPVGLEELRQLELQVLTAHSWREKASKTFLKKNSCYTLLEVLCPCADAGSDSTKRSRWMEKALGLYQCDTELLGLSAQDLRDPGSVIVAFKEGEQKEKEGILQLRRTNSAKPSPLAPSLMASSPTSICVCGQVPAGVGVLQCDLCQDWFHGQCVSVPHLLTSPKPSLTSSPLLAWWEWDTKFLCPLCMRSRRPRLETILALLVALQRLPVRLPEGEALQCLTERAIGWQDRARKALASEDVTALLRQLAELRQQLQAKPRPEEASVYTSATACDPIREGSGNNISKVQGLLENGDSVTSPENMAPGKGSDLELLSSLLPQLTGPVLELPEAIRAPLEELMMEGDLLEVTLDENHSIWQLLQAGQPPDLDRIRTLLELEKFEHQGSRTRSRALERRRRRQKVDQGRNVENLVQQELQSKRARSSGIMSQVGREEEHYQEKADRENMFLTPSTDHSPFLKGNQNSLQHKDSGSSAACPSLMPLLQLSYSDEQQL
UniProt Q9H9V9: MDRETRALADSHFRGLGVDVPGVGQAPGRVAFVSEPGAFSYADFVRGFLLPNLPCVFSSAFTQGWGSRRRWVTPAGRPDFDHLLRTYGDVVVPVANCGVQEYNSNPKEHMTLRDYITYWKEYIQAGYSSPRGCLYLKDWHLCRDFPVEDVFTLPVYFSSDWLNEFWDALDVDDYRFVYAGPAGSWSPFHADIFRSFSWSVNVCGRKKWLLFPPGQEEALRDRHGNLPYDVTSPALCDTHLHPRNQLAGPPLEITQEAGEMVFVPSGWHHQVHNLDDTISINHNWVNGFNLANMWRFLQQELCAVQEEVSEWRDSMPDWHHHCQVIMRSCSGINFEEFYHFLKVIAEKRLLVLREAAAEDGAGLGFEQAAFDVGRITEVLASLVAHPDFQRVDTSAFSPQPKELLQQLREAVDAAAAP
UniProt Q969F8, whole entry, looked up: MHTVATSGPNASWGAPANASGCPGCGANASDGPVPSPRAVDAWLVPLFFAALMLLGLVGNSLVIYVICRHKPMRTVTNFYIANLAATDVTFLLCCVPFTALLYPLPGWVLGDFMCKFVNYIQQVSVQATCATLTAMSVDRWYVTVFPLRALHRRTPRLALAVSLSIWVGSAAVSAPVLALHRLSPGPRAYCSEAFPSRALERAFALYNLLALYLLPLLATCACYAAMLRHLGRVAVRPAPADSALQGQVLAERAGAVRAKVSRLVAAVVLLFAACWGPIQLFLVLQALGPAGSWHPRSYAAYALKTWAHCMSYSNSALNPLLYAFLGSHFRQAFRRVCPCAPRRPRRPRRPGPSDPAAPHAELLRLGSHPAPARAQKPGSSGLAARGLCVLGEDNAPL
UniProt Q96S16: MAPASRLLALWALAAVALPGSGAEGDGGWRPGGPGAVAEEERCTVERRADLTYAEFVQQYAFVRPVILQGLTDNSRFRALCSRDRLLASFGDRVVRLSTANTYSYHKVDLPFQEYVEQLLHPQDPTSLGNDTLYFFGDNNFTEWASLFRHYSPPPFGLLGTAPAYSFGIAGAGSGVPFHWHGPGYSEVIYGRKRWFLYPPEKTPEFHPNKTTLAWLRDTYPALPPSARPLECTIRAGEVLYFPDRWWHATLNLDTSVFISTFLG
UniProt P0C870: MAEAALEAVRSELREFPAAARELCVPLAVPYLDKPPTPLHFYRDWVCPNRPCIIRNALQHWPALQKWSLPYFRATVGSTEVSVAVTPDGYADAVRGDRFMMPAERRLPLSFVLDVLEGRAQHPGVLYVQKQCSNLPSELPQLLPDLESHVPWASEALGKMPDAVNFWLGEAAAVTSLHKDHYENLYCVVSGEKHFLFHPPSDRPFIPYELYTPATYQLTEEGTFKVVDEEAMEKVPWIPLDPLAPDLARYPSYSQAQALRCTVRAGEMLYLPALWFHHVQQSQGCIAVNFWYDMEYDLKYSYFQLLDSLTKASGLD
UniProt Q8WVZ9: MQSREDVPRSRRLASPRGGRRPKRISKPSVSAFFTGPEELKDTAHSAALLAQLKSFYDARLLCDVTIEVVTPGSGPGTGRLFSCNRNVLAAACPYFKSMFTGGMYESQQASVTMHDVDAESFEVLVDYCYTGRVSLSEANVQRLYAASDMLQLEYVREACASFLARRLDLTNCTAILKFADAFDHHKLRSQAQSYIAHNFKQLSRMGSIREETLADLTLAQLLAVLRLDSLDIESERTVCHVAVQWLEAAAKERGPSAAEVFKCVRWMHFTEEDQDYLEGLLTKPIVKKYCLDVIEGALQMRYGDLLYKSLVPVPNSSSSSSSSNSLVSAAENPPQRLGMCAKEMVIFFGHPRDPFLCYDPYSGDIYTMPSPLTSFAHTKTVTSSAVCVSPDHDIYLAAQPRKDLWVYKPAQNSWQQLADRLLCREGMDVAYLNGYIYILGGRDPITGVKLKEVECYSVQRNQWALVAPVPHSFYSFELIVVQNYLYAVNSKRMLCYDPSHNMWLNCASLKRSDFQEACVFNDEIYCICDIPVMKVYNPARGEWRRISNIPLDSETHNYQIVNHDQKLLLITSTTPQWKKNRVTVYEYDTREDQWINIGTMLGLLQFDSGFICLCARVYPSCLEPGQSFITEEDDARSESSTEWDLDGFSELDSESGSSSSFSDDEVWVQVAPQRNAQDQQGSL
UniProt Q9H3F6: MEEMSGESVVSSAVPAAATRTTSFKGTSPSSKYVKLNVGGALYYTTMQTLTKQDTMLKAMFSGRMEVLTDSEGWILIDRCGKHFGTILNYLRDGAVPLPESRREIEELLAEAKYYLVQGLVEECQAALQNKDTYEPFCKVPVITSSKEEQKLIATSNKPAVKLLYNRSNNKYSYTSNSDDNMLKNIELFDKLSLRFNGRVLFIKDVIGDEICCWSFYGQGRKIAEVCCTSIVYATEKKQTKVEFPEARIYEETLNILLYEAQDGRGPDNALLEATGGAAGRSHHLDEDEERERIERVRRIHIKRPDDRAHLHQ
UniProt P50748: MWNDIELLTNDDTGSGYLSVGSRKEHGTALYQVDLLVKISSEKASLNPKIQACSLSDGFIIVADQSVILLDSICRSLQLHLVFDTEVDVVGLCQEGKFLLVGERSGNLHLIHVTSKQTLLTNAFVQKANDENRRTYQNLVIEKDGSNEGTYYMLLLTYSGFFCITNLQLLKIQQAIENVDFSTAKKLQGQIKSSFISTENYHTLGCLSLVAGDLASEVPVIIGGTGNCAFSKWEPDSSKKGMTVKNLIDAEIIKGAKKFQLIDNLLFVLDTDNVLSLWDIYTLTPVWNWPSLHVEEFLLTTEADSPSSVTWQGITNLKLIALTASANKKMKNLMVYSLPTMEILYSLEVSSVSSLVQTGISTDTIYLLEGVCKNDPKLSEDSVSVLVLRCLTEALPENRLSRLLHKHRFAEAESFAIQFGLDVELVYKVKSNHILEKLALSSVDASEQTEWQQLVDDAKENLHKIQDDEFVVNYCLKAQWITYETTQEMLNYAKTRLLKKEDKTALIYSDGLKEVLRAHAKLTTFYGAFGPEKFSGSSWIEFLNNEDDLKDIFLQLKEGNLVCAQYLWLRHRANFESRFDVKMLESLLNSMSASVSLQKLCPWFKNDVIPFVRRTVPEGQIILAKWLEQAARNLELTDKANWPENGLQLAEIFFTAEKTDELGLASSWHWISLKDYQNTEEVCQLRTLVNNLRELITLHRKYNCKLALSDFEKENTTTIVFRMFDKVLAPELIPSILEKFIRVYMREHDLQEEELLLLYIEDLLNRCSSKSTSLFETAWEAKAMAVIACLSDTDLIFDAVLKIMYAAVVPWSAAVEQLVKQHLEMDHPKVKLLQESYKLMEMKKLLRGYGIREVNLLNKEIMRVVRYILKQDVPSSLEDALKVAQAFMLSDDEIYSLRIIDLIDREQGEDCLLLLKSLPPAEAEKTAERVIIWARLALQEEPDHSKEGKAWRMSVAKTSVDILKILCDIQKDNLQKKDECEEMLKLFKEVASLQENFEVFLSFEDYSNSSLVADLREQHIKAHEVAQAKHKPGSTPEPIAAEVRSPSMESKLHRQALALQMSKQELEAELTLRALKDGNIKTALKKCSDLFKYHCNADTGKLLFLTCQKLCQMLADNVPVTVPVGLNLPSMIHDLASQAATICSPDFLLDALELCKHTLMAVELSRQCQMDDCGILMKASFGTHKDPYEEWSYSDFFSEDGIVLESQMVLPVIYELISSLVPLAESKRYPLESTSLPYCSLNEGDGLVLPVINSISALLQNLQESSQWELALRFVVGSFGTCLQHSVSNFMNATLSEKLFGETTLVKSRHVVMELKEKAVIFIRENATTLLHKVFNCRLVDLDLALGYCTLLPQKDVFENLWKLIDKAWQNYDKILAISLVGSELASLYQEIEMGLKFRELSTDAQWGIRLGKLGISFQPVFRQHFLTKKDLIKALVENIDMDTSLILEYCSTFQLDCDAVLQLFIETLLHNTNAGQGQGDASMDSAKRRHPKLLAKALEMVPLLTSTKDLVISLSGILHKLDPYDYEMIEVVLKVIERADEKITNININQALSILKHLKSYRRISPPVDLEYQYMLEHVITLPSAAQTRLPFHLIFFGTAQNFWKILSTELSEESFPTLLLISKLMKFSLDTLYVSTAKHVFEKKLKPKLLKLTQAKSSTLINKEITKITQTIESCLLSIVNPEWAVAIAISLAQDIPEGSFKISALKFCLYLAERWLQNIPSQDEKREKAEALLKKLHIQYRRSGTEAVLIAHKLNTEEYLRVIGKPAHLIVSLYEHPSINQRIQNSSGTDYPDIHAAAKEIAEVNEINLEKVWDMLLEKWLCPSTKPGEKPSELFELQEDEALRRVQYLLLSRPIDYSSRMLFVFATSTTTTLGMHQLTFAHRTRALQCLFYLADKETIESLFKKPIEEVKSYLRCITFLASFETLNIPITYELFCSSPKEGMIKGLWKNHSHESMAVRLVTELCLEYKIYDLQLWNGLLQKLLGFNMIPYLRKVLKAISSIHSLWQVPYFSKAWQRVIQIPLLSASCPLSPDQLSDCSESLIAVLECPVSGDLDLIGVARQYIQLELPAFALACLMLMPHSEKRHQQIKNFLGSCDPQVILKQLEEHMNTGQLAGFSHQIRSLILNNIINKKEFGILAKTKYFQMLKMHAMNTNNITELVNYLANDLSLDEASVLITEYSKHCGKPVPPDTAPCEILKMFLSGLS

The other results are listed elsewhere or left out.

Compound in the test: CN1CCN(c2nc(C3=C(c4c[nH]c5ccccc45)C(=O)NC3=O)c3ccccc3n2)CC1 [sotrastaurin]
The test can be described thus: log2 fold change, soluble protein after heating vs DMSO (PISA); higher = thermal stabilisation; K562 cells, 10 uM, 30 min; active = over 0.2 and 3.5 SD of the protein, either way, in both replicates (recomputed). The essentials:
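Aliquots of K562 cells (2×10^6 cells/mL) treated with 10 μM compound for 30 min were heated for 3 min over 48°C-58°C. After pooling and extraction in PBS with 0.5% NP-40 at 4°C, soluble protein from a 21,000xg, 90 min spin was quantified by TMTpro 16plex LC-MS/MS with channel sums equalised. Thermal stability is expressed against control samples, from duplicates, as a log2 fold change.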
For the target KRAS isoform 2 (UniProt P01116), the log2 fold change is inactive: 0.045.

Turning to KPNB1 (UniProt Q14974), the log2 fold change was inactive: -0.21.

As to KPNA4 (UniProt O00629), the log2 fold change is inactive: 0.032.

For the target KCNH2 (UniProt Q12809), the log2 fold change is inactive: -0.04.

As to KLF1 (UniProt Q13351), the log2 fold change was inactive: 0.182.

Consider KIF3B (UniProt O15066), for which the log2 fold change is inactive: 0.005.

As to KDM5D isoform 3 (UniProt Q9BY66), the log2 fold change was inactive: 0.078.

As for KIDINS220 isoform 2 (UniProt Q9ULH0), the log2 fold change is inactive: 0.013.

Regarding JMJD4 (UniProt Q9H9V9), the log2 fold change is inactive: 0.041.

For the target KISS1R (UniProt Q969F8), the log2 fold change is inactive: -0.046.

With KMT2C isoform 3 (UniProt Q8NEZ4), the log2 fold change is inactive: -0.02.

As to JMJD8 (UniProt Q96S16), the log2 fold change is inactive: -0.183.

With JMJD6 isoform 3 (UniProt Q6NYC1), the log2 fold change was inactive: -0.018.

Consider JMJD7 (UniProt P0C870), for which the log2 fold change is inactive: 0.008.

As to KIF11 (UniProt P52732), the log2 fold change was inactive: -0.2.

On to JAK3 (UniProt P52333), for which the log2 fold change is inactive: -0.042.

As to KBTBD7 (UniProt Q8WVZ9), the log2 fold change was inactive: -0.008.

Turning to KIAA1324L (UniProt A8MWY0), the log2 fold change was inactive: 0.014.

KCTD10 (UniProt Q9H3F6): the log2 fold change is inactive: -0.002.

With KLC2 (UniProt Q9H0B6), the log2 fold change was inactive: -0.032.

With KDM3B (UniProt Q7LBC6), the log2 fold change was inactive: -0.089.

Regarding KNTC1 (UniProt P50748), the log2 fold change is inactive: -0.051.
